Assay [1] has as its target endogenous Nf1 (neurofibromin) (human (endogenous in HEK-293)) (UniProt P21359). The experiment in a line: co-IP; endogenous proteins of HEK-293 lysate; anti-Nf1 antibodies coupled to sepharose beads; endogenous LIMK2 detected by immunoblot.
Assay [2] concerns the target HA-LIMK2 (pcDNA3-(HA)2-LIMK2) (UniProt P53671). Description: co-IP; HEK-293 cells transfected with HA-LIMK2 (WT, TA or TEE); anti-HA immunoprecipitation; endogenous Nf1 detected by immunoblot. Background: In western blotting, separated proteins are transferred to a membrane and probed.
In assay [3] the target is T1, HA-LIMK2-T505A (pcDNA3-(HA)2-LIMK2-T505A) (UniProt P53671).
T1 sequence: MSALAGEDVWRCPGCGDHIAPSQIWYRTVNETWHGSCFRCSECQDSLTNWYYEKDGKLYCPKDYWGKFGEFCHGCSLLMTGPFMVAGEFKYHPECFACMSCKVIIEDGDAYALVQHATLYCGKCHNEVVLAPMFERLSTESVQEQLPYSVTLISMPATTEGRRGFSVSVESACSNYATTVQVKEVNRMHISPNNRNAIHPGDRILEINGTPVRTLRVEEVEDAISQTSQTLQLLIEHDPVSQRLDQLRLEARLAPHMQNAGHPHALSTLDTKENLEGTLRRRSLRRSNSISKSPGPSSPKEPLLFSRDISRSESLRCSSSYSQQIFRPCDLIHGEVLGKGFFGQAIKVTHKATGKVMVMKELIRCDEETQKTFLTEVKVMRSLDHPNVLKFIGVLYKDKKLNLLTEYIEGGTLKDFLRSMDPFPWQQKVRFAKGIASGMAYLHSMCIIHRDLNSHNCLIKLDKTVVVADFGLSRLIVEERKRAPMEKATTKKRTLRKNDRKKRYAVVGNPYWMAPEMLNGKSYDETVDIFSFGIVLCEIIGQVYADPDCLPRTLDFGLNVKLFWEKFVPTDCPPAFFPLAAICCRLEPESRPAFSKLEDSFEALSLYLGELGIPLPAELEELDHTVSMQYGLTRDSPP
The description is as above.

Chains of the proteins cited; added tags and fusions are not shown. Lines headed by an entry give the natural chain unless they say otherwise; changes in a name come on top. A line that says so, or that is headed by a name, gives the form on record, which may keep a tag or linker.
endogenous Nf1 (neurofibromin) (P21359-2, form named): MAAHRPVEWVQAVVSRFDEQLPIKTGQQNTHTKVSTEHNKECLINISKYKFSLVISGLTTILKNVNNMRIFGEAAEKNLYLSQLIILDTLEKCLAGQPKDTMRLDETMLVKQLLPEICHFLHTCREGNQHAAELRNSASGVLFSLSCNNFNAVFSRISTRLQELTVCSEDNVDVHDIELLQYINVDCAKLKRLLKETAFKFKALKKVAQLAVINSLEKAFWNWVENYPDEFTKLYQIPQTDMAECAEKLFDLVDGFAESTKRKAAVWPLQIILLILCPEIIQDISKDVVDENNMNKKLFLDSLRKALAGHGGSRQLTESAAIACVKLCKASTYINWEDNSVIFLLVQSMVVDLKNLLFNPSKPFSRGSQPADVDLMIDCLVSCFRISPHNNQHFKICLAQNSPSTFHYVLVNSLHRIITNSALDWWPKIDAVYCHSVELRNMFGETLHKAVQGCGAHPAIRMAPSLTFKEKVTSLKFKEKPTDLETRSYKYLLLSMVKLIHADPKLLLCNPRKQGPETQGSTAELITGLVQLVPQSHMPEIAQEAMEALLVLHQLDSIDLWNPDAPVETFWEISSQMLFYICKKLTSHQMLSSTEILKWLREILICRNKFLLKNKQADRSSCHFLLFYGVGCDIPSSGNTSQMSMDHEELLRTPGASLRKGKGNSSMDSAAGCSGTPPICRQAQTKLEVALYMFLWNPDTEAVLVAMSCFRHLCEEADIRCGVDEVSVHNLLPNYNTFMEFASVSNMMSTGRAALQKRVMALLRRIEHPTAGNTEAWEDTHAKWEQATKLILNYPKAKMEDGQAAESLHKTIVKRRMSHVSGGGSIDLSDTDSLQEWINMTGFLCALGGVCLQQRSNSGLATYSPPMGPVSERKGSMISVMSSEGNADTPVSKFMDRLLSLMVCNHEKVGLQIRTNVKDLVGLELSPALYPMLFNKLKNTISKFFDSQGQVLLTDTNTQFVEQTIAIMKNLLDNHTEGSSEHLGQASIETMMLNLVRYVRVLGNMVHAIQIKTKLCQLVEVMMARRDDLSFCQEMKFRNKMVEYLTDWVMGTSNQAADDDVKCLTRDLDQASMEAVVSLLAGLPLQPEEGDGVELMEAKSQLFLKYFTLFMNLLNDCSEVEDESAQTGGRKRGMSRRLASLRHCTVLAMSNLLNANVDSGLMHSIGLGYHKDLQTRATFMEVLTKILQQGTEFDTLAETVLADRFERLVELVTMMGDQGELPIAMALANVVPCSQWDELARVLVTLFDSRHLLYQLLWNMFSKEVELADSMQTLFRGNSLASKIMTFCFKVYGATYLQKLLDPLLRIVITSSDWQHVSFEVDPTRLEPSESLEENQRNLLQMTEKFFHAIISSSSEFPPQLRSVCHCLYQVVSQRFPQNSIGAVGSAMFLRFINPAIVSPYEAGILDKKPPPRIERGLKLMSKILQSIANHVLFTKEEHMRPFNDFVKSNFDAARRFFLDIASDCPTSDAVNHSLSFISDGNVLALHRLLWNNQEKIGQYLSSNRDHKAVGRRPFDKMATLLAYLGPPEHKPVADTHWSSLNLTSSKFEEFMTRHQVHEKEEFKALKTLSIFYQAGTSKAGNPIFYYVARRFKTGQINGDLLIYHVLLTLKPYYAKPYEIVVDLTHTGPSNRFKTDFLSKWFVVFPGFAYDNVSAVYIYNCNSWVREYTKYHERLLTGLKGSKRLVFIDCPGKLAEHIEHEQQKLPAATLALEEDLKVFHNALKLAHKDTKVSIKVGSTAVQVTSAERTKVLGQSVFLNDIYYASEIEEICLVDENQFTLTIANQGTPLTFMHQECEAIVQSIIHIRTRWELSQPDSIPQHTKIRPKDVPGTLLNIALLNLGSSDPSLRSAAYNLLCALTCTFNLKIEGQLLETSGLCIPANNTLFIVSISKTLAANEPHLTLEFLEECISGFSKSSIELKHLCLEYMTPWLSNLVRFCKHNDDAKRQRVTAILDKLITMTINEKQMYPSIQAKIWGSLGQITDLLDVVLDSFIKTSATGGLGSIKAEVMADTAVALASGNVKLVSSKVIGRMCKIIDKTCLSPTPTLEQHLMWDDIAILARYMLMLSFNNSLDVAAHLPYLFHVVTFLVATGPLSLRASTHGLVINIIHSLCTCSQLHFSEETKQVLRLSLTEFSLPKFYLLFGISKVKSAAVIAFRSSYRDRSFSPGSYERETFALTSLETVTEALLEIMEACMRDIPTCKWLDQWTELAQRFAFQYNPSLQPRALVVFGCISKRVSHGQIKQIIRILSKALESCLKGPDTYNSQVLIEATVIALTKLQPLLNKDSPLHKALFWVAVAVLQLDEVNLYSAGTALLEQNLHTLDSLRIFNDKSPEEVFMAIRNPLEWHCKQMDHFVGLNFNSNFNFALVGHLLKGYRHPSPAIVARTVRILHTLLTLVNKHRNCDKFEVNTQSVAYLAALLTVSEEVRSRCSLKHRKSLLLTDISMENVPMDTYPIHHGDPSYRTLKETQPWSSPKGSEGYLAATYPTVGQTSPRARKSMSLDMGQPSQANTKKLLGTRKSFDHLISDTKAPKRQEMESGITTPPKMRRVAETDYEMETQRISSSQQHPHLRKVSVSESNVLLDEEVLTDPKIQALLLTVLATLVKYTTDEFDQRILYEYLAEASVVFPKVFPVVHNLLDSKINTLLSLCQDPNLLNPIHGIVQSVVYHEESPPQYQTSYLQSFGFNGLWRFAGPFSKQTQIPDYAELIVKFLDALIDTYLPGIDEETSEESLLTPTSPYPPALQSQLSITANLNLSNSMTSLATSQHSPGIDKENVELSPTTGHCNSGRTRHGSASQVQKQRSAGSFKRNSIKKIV

Results are given in words; binding and its absence hold for the method and conditions named. Binding seen in cells or lysates may run through a third protein. Some results given as binding are weak or reduced against the parent protein; the word gives no strength. For part of these data: Tags and fused reporters may be left off the sequences shown.

On to “endogenous LIMK2 (from UniProt P53671 1-638) (enzyme)”, for which the binding result in assay [1] is listed as “binds”.

As for “endogenous Nf1 (neurofibromin) (from UniProt P21359-2 1-2818)”, the binding entry in assay [2] and in assay [3] was “binds” each time.

The values are drawn from publication PMC3474823.
